Results deposited as PubChem BioAssay AID686943 (Drosophila RNAi Screening Center, 2013)
In all, the deposit lists about 23,000 reagents; below is a random part of those with a known target gene and a result. 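Extra replicates exist only for a retested subset of genes; insulin dose and duration not given; both raised and lowered dpERK matter.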 The numbers tell different reagents against one gene apart. Further read-outs or replicates are left out here. Not stated in the record: the amount of reagent, the time to read-out.

Purpose: 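Fly genes whose loss alters ERK activation after insulin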 (primary screen)
Cells: Drosophila S2R+ haemocyte-like cells expressing YFP-tagged ERK (Rolled)
Reagent: long dsRNA against Drosophila genes
Conditions: insulin stimulation versus unstimulated cells; dose and duration not given
Measured: 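Per-plate z-scores of phospho-ERK immunostaining normalised to YFP-tagged ERK, measured with and without insulin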
Reading the numbers: replicate 1, z-score of dpERK with insulin and replicate 2, z-score of dpERK with insulin: higher = more active ERK per ERK-YFP after insulin

CG43901 (GeneID 32024) #1
- replicate 1, z-score of dpERK with insulin: 0.5
- replicate 2, z-score of dpERK with insulin: 0.83

CG43901 (GeneID 32024) #2
- replicate 1, z-score of dpERK with insulin: -0.09
- replicate 2, z-score of dpERK with insulin: -2.52

CG43901 (GeneID 32024) #3
- replicate 1, z-score of dpERK with insulin: 1.19
- replicate 2, z-score of dpERK with insulin: 0.49

CG43901 (GeneID 32024) #4
- replicate 1, z-score of dpERK with insulin: 0.46
- replicate 2, z-score of dpERK with insulin: -0.24

CG14111 (GeneID 39497)
- replicate 1, z-score of dpERK with insulin: -0.15
- replicate 2, z-score of dpERK with insulin: 0.7

rnh1 (GeneID 35746)
- replicate 1, z-score of dpERK with insulin: -0.68
- replicate 2, z-score of dpERK with insulin: 0.35

Records above whose target name begins with C or c (5):
CG43901 (GeneID 32024) #1
- replicate 1, z-score of dpERK with insulin: 0.5
- replicate 2, z-score of dpERK with insulin: 0.83

CG43901 (GeneID 32024) #2
- replicate 1, z-score of dpERK with insulin: -0.09
- replicate 2, z-score of dpERK with insulin: -2.52

CG43901 (GeneID 32024) #3
- replicate 1, z-score of dpERK with insulin: 1.19
- replicate 2, z-score of dpERK with insulin: 0.49

CG43901 (GeneID 32024) #4
- replicate 1, z-score of dpERK with insulin: 0.46
- replicate 2, z-score of dpERK with insulin: -0.24

CG14111 (GeneID 39497)
- replicate 1, z-score of dpERK with insulin: -0.15
- replicate 2, z-score of dpERK with insulin: 0.7

Next entries:
CG30432 (GeneID 246611)
- replicate 1, z-score of dpERK with insulin: -0.41
- replicate 2, z-score of dpERK with insulin: 0.38

CG6885 (GeneID 40041)
- replicate 1, z-score of dpERK with insulin: -0.11
- replicate 2, z-score of dpERK with insulin: 0.53

Tango4 (GeneID 32168)
- replicate 1, z-score of dpERK with insulin: 1.3
- replicate 2, z-score of dpERK with insulin: 2.76

Ptp99A (GeneID 43469) #1
- replicate 1, z-score of dpERK with insulin: 0.59
- replicate 2, z-score of dpERK with insulin: 0.3

Ptp99A (GeneID 43469) #2
- replicate 1, z-score of dpERK with insulin: 0.46
- replicate 2, z-score of dpERK with insulin: -0.28

Ptp99A (GeneID 43469) #3
- replicate 1, z-score of dpERK with insulin: -0.54
- replicate 2, z-score of dpERK with insulin: -0.04

Ptp99A (GeneID 43469) #4
- replicate 1, z-score of dpERK with insulin: -0.12
- replicate 2, z-score of dpERK with insulin: -0.34

Ptp99A (GeneID 43469) #5
- replicate 1, z-score of dpERK with insulin: 0.51
- replicate 2, z-score of dpERK with insulin: 0.03

Ptp99A (GeneID 43469) #6
- replicate 1, z-score of dpERK with insulin: -4.56
- replicate 2, z-score of dpERK with insulin: 0.58

Ptp99A (GeneID 43469) #7
- replicate 1, z-score of dpERK with insulin: 0.04
- replicate 2, z-score of dpERK with insulin: 0.87
